The values below are quoted from earlier work in US11555040B2, “Oxepinopyrazole derivatives as inhibitors of P13-kinase activity” (GLAXOSMITHKLINE INTELLECTUAL PROPERTY DEVELOPMENT LIMITED, priority 2017, dated 2023).

Sequences of proteins named here, by UniProt entry; tags and fusion partners are left off.
UniProt P68400, whole entry: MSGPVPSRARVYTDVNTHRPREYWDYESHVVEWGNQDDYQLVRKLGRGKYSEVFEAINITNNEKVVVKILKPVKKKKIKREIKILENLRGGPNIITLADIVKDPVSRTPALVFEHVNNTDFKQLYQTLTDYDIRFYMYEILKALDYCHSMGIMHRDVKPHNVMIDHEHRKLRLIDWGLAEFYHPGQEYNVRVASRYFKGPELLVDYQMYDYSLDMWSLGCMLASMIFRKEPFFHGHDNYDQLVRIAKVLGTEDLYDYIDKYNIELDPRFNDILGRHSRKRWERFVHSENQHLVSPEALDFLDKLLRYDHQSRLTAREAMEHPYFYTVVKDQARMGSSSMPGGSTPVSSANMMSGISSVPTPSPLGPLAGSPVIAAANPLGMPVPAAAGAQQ

For this series, the target named is CK2 protein kinase (Homo sapiens, UniProt P68400).

On to `O=c1cc(N2CCOCC2)oc2c(-c3ccccc3)cccc12` [LY294002], for which the concentration for half-maximal inhibition (IC50) was 5 to 10 µM.
